From patent publication US10575525B2, “Benzoxazole compound or salt thereof, agricultural and horticultural insecticide comprising the compound, and method for using the insecticide” (Nihon Nohyaku Co., Ltd., priority 2016, dated 2020)
Some of these results come from one statement about several compounds together.

System: Myzus persicae
Assay: Test for control effect on Myzus persicae (foliar application, potted Chinese cabbage)
Assay type: in vivo
Conditions: 500 ppm, foliar application to Chinese cabbage, 6 days after application

Structure (SMILES)	control effect (control rate), activity level
CCS(=O)(=O)c1cc(C2CC2)cnc1-c1nc2cc([S+]([O-])C(F)(F)F)ccc2o1 (centres unmarked) [Compound 1-12, 2-(5-Cyclopropyl-3-ethylsulfonylpyridin-2-yl)-5-(trifluoromethylsulfinyl)benzo[d]oxazole]	A (the control rate is 100%)
CCS(=O)(=O)c1cc(C2CC2)cnc1-c1nc2cc(OC(F)(F)F)ccc2o1 [Compound 1-3, 2-(5-Cyclopropyl-3-ethylsulfonylpyridin-2-yl)-5-(trifluoromethoxy)benzo[d]oxazole]	A (the control rate is 100%)
